# PubChem BioAssay AID1259254 – NCATS | 2017
# Aim: 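Finding genes that stop cells copying their DNA twice in one cycle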 (primary screen)
# Cells: human HCT116 colorectal cancer cells
# Reagent: single siRNA against human genes
# Time to read-out: 3 days
# Measured: 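Imaged Hoechst DNA stain sorts each cell into a cycle phase by DNA amount; per plate, G2 fraction set to 0% for non-targeting and 100% for GMNN siRNA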
# Direction: G2 robust z-score and G2 cells, % of GMNN control: higher = more G2 cells, more excess DNA replication; raw share of cells in G2: higher = larger share of cells with G2 DNA content
# Hit rule: 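An siRNA counts as active if its G2 robust z-score lies at least 5 MADs above the screen median; here such calls match roughly 38% of GMNN control or more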
# Shown is one part, drawn at random, of about 59,000 reagents. About 1,550 of all reagents (2.6%) count as active. 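G2 share is only a proxy for re-replication; each gene was hit by three separate siRNAs, and active genes were retested.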 The raw values are shown without normalisation. Reagents against one gene are numbered here. Not stated in the record: the amount of reagent.
target gene,reagent,G2 robust z-score,"G2 cells, % of GMNN control",raw share of cells in G2 (%),call
KERA (keratocan),1,0.234,4.61,8.22,inactive
KERA (keratocan),2,0.427,5.97,6.15,inactive
KERA (keratocan),3,0.482,6.36,6.04,inactive
EFHB (EF-hand domain family member B),1,-0.515,-0.655,2.87,inactive
EFHB (EF-hand domain family member B),2,-0.306,0.813,3.45,inactive
EFHB (EF-hand domain family member B),3,1.64,14.5,8.61,inactive
PASD1 (PAS domain containing repressor 1),1,1.49,13.5,9.25,inactive
PASD1 (PAS domain containing repressor 1),2,-0.154,1.88,3.7,inactive
PASD1 (PAS domain containing repressor 1),3,-0.449,-0.19,2.51,inactive
WNT7B (Wnt family member 7B),1,-0.706,-2,4.24,inactive
WNT7B (Wnt family member 7B),2,1.1,10.7,8.15,inactive
WNT7B (Wnt family member 7B),3,-0.765,-2.42,2.49,inactive
TMEM37 (transmembrane protein 37),1,-0.476,-0.382,4.03,inactive
TMEM37 (transmembrane protein 37),2,0.313,5.17,4.74,inactive
TMEM37 (transmembrane protein 37),3,0.46,6.2,4.83,inactive
CMKLR2 (chemerin chemokine-like receptor 2),1,2.68,21.8,13.6,inactive
CMKLR2 (chemerin chemokine-like receptor 2),2,4.69,36,17.1,inactive
CMKLR2 (chemerin chemokine-like receptor 2),3,1.06,10.4,6.46,inactive
RETREG1 (reticulophagy regulator 1),1,1.93,16.6,9.53,inactive
RETREG1 (reticulophagy regulator 1),2,-0.423,-0.00734,4.27,inactive
RETREG1 (reticulophagy regulator 1),3,-1.12,-4.91,1.57,inactive
LCN10 (lipocalin 10),1,0.235,4.62,5.97,inactive
LCN10 (lipocalin 10),2,3.06,24.5,16.5,inactive
LCN10 (lipocalin 10),3,-0.224,1.39,5.5,inactive
AHNAK (AHNAK nucleoprotein),1,2.35,19.5,13.1,inactive
AHNAK (AHNAK nucleoprotein),2,1.5,13.5,10.7,inactive
AHNAK (AHNAK nucleoprotein),3,0.765,8.35,4.9,inactive
SH2D4B (SH2 domain containing 4B),1,-0.298,0.873,4.07,inactive
SH2D4B (SH2 domain containing 4B),2,2.1,17.7,11.1,inactive
SH2D4B (SH2 domain containing 4B),3,-0.536,-0.806,4.29,inactive
"PPM1J (protein phosphatase, Mg2+/Mn2+ dependent 1J)",1,-1.19,-5.44,3.03,inactive
"PPM1J (protein phosphatase, Mg2+/Mn2+ dependent 1J)",2,-0.88,-3.22,3.33,inactive
"PPM1J (protein phosphatase, Mg2+/Mn2+ dependent 1J)",3,0.55,6.84,5.55,inactive
ZSCAN25 (zinc finger and SCAN domain containing 25),1,-0.813,-2.75,3.55,inactive
ZSCAN25 (zinc finger and SCAN domain containing 25),2,-1.25,-5.82,3.18,inactive
ZSCAN25 (zinc finger and SCAN domain containing 25),3,1.98,16.9,10.9,inactive
SH2D2A (SH2 domain containing 2A),1,2.4,19.8,13.9,inactive
SH2D2A (SH2 domain containing 2A),2,-0.0347,2.72,4.97,inactive
SH2D2A (SH2 domain containing 2A),3,-0.341,0.571,3.55,inactive
ORC1 (origin recognition complex subunit 1),1,1.08,10.6,9.19,inactive
ORC1 (origin recognition complex subunit 1),2,-0.775,-2.49,3.74,inactive
ORC1 (origin recognition complex subunit 1),3,3.38,26.8,12.3,inactive
SPATA6L (spermatogenesis associated 6 like),1,-0.942,-3.66,3.12,inactive
SPATA6L (spermatogenesis associated 6 like),2,1.58,14.1,9.97,inactive
SPATA6L (spermatogenesis associated 6 like),3,1.45,13.2,7.34,inactive

9 entries from above, arranged by “raw share of cells in G2 (%)”, descending:
target gene,reagent,G2 robust z-score,"G2 cells, % of GMNN control",raw share of cells in G2 (%),call
AHNAK (AHNAK nucleoprotein),1,2.35,19.5,13.1,inactive
SH2D4B (SH2 domain containing 4B),2,2.1,17.7,11.1,inactive
AHNAK (AHNAK nucleoprotein),2,1.5,13.5,10.7,inactive
LCN10 (lipocalin 10),3,-0.224,1.39,5.5,inactive
AHNAK (AHNAK nucleoprotein),3,0.765,8.35,4.9,inactive
SH2D4B (SH2 domain containing 4B),3,-0.536,-0.806,4.29,inactive
SH2D4B (SH2 domain containing 4B),1,-0.298,0.873,4.07,inactive
"PPM1J (protein phosphatase, Mg2+/Mn2+ dependent 1J)",2,-0.88,-3.22,3.33,inactive
"PPM1J (protein phosphatase, Mg2+/Mn2+ dependent 1J)",1,-1.19,-5.44,3.03,inactive

The listing continues.
target gene,reagent,G2 robust z-score,"G2 cells, % of GMNN control",raw share of cells in G2 (%),call
PMS2P12,1,-0.654,-1.64,4.11,inactive
PMS2P12,2,0.996,9.98,7.44,inactive
PMS2P12,3,-0.951,-3.73,2.04,inactive
CEACAM19 (CEA cell adhesion molecule 19),1,-0.972,-3.87,2.82,inactive
CEACAM19 (CEA cell adhesion molecule 19),2,1.5,13.5,10.9,inactive
CEACAM19 (CEA cell adhesion molecule 19),3,0.0254,3.15,4.03,inactive
SP1 (Sp1 transcription factor),1,3.13,25,12.2,inactive
SP1 (Sp1 transcription factor),2,0.357,5.48,7.53,inactive
SP1 (Sp1 transcription factor),3,3.54,27.9,14.1,inactive
SURF6 (surfeit 6),1,-0.685,-1.85,3.34,inactive
SURF6 (surfeit 6),2,-0.459,-0.261,4.46,inactive
SURF6 (surfeit 6),3,1.75,15.3,10.8,inactive
VASN (vasorin),1,-0.173,1.75,5.72,inactive
VASN (vasorin),2,-0.311,0.777,4.77,inactive
VASN (vasorin),3,-0.744,-2.27,4.62,inactive
SGK3 (serum/glucocorticoid regulated kinase family member 3),1,-0.199,1.57,6.08,inactive
SGK3 (serum/glucocorticoid regulated kinase family member 3),2,-0.794,-2.62,4.24,inactive
SGK3 (serum/glucocorticoid regulated kinase family member 3),3,0.0546,3.35,4.76,inactive
ZNF804A (zinc finger protein 804A),1,-0.118,2.14,4.99,inactive
ZNF804A (zinc finger protein 804A),2,1.05,10.4,6.25,inactive
ZNF804A (zinc finger protein 804A),3,0.23,4.59,4.38,inactive
ZNF75D (zinc finger protein 75D),1,0.598,7.18,6.84,inactive
ZNF75D (zinc finger protein 75D),2,1.28,12,8.73,inactive
ZNF75D (zinc finger protein 75D),3,0.26,4.8,7.62,inactive
CLPTM1L (CLPTM1 like),1,-0.576,-1.09,3.99,inactive
CLPTM1L (CLPTM1 like),2,0.168,4.15,6.12,inactive
CLPTM1L (CLPTM1 like),3,-0.902,-3.38,1.45,inactive
SLC19A1,1,0.272,4.88,7.32,inactive
SLC19A1,2,0.59,7.12,6.31,inactive
SLC19A1,3,0.488,6.4,6.74,inactive
UBE2NL (ubiquitin conjugating enzyme E2 N like (gene/pseudogene)),1,0.151,4.03,5.16,inactive
UBE2NL (ubiquitin conjugating enzyme E2 N like (gene/pseudogene)),2,-0.794,-2.62,3.51,inactive
UBE2NL (ubiquitin conjugating enzyme E2 N like (gene/pseudogene)),3,-0.194,1.6,4.32,inactive
NOSIP (nitric oxide synthase interacting protein),1,-1,-4.07,1.97,inactive
NOSIP (nitric oxide synthase interacting protein),2,-0.56,-0.975,3.48,inactive
NOSIP (nitric oxide synthase interacting protein),3,0.475,6.31,6.94,inactive
NDE1 (nudE neurodevelopment protein 1),1,-1.33,-6.37,1.32,inactive
NDE1 (nudE neurodevelopment protein 1),2,1.78,15.5,10.8,inactive
NDE1 (nudE neurodevelopment protein 1),3,-0.0966,2.29,3.95,inactive
SLC44A5,1,-0.489,-0.477,4.5,inactive
SLC44A5,2,2.49,20.5,15.7,inactive
SLC44A5,3,-0.416,0.044,4.72,inactive
